PubChem BioAssay AID1508597 – Cure First, 2020

- Purpose: 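Survival screen with siRNA in ovarian cancer cells derived from patients, with or without rucaparib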 (primary screen)
- Cell system: human ovarian carcinoma lines grown from tumours: OCI-P5x (papillary serous) and OCI-C5x (clear cell)
- Knock-down reagent: siRNA pool against human genes, 1.25 pmol siRNA per well
- Timing: 72 h or 96 h, depending on the cell culture
- Challenge: rucaparib 20 µM (about IC30) or vehicle, present until read-out
- Measurement: 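Luminescent ATP-based viability assay read 72 or 96 h after transfection, depending on culture, given as normalised percent viability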
- Direction: viability, normalised: higher = more viable cells remaining
- Hit rule: 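Active when normalised viability falls below 80 percent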
- Calls: active = viability under 80%; inactive = viability 80% or more
In all, the deposit lists about 2,100 reagents; this is a random part of them. 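Calls flag viability under 80% in either arm, not effects specific to rucaparib; the reference for percent is not stated.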 Some reagents were tested in more than one well and are listed for each. Not given: the 100% reference.

gene symbol	rucaparib or vehicle	cell line	technical replicate	viability, normalised (%)	call
CHMP5	Rucaparib	OCI-C5x (clear cell)	1	41.1	active
CHMP5	Rucaparib	OCI-C5x (clear cell)	2	44.5	active
CHMP5	Rucaparib	OCI-C5x (clear cell)	3	33.4	active
CHMP5	Rucaparib	OCI-P5x (serous)	1	66.8	active
CHMP5	Rucaparib	OCI-P5x (serous)	2	39	active
CHMP5	Rucaparib	OCI-P5x (serous)	3	58.7	active
CHMP5	Vehicle	OCI-C5x (clear cell)	1	42.1	active
CHMP5	Vehicle	OCI-C5x (clear cell)	2	23.9	active
CHMP5	Vehicle	OCI-C5x (clear cell)	3	32.3	active
CHMP5	Vehicle	OCI-P5x (serous)	1	42.3	active
CHMP5	Vehicle	OCI-P5x (serous)	2	63.7	active
CHMP5	Vehicle	OCI-P5x (serous)	3	57.8	active
RBBP7	Rucaparib	OCI-C5x (clear cell)	1	57.5	active
RBBP7	Rucaparib	OCI-C5x (clear cell)	2	41.6	active
RBBP7	Rucaparib	OCI-C5x (clear cell)	3	37.9	active
RBBP7	Rucaparib	OCI-P5x (serous)	1	39.8	active
RBBP7	Rucaparib	OCI-P5x (serous)	2	46.9	active
RBBP7	Rucaparib	OCI-P5x (serous)	3	46.4	active
RBBP7	Vehicle	OCI-C5x (clear cell)	1	50.3	active
RBBP7	Vehicle	OCI-C5x (clear cell)	2	60.3	active
RBBP7	Vehicle	OCI-C5x (clear cell)	3	48.2	active
RBBP7	Vehicle	OCI-P5x (serous)	1	70	active
RBBP7	Vehicle	OCI-P5x (serous)	2	66.7	active
RBBP7	Vehicle	OCI-P5x (serous)	3	87.6	inactive
DUT	Rucaparib	OCI-C5x (clear cell)	1	30.2	active
DUT	Rucaparib	OCI-C5x (clear cell)	2	34.4	active
DUT	Rucaparib	OCI-C5x (clear cell)	3	29.7	active
DUT	Rucaparib	OCI-P5x (serous)	1	47.2	active
DUT	Rucaparib	OCI-P5x (serous)	2	49	active
DUT	Rucaparib	OCI-P5x (serous)	3	49.9	active
DUT	Vehicle	OCI-C5x (clear cell)	1	46.3	active
DUT	Vehicle	OCI-C5x (clear cell)	2	44.3	active
DUT	Vehicle	OCI-C5x (clear cell)	3	36.4	active
DUT	Vehicle	OCI-P5x (serous)	1	53.5	active
DUT	Vehicle	OCI-P5x (serous)	2	72.7	active
DUT	Vehicle	OCI-P5x (serous)	3	45.9	active
NTRK3	Rucaparib	OCI-C5x (clear cell)	1	63.1	active
NTRK3	Rucaparib	OCI-C5x (clear cell)	2	61.9	active
NTRK3	Rucaparib	OCI-C5x (clear cell)	3	69.9	active
NTRK3	Rucaparib	OCI-P5x (serous)	1	112	inactive
NTRK3	Rucaparib	OCI-P5x (serous)	2	110	inactive
NTRK3	Rucaparib	OCI-P5x (serous)	3	94.7	inactive
NTRK3	Vehicle	OCI-C5x (clear cell)	1	82	inactive
NTRK3	Vehicle	OCI-C5x (clear cell)	2	55.3	active
NTRK3	Vehicle	OCI-C5x (clear cell)	3	61.9	active
NTRK3	Vehicle	OCI-P5x (serous)	1	110	inactive
NTRK3	Vehicle	OCI-P5x (serous)	2	94.9	inactive
NTRK3	Vehicle	OCI-P5x (serous)	3	97.9	inactive
BRIP1	Rucaparib	OCI-C5x (clear cell)	1	82.3	inactive
BRIP1	Rucaparib	OCI-C5x (clear cell)	1	73	active
BRIP1	Rucaparib	OCI-C5x (clear cell)	2	66.3	active
BRIP1	Rucaparib	OCI-C5x (clear cell)	2	74.9	active
BRIP1	Rucaparib	OCI-C5x (clear cell)	3	77.5	active
BRIP1	Rucaparib	OCI-C5x (clear cell)	3	61.4	active
BRIP1	Rucaparib	OCI-P5x (serous)	1	86.1	inactive
BRIP1	Rucaparib	OCI-P5x (serous)	1	89.3	inactive
BRIP1	Rucaparib	OCI-P5x (serous)	2	87.5	inactive
BRIP1	Rucaparib	OCI-P5x (serous)	2	88.4	inactive
BRIP1	Rucaparib	OCI-P5x (serous)	3	88.4	inactive
BRIP1	Rucaparib	OCI-P5x (serous)	3	81.9	inactive
BRIP1	Vehicle	OCI-C5x (clear cell)	1	66.5	active
BRIP1	Vehicle	OCI-C5x (clear cell)	1	47.4	active
BRIP1	Vehicle	OCI-C5x (clear cell)	2	48.1	active
BRIP1	Vehicle	OCI-C5x (clear cell)	2	66.3	active
BRIP1	Vehicle	OCI-C5x (clear cell)	3	68.2	active
BRIP1	Vehicle	OCI-C5x (clear cell)	3	73.6	active
BRIP1	Vehicle	OCI-P5x (serous)	1	92.1	inactive
BRIP1	Vehicle	OCI-P5x (serous)	1	56.3	active
BRIP1	Vehicle	OCI-P5x (serous)	2	76.5	active
BRIP1	Vehicle	OCI-P5x (serous)	2	89.7	inactive
BRIP1	Vehicle	OCI-P5x (serous)	3	83.8	inactive
BRIP1	Vehicle	OCI-P5x (serous)	3	61.7	active
PIM2	Rucaparib	OCI-C5x (clear cell)	1	63.9	active
PIM2	Rucaparib	OCI-C5x (clear cell)	2	71.5	active
PIM2	Rucaparib	OCI-C5x (clear cell)	3	42.8	active
PIM2	Rucaparib	OCI-P5x (serous)	1	76.6	active
PIM2	Rucaparib	OCI-P5x (serous)	2	72.4	active
PIM2	Rucaparib	OCI-P5x (serous)	3	60.4	active
PIM2	Vehicle	OCI-C5x (clear cell)	1	123	inactive
PIM2	Vehicle	OCI-C5x (clear cell)	2	64.6	active
PIM2	Vehicle	OCI-C5x (clear cell)	3	56.5	active
PIM2	Vehicle	OCI-P5x (serous)	1	80.1	inactive
PIM2	Vehicle	OCI-P5x (serous)	2	63.6	active
PIM2	Vehicle	OCI-P5x (serous)	3	61.8	active

In a second layout: results already given.
BRIP1, rucaparib or vehicle Rucaparib, cell line OCI-P5x (serous), technical replicate 2 → viability, normalised (%) = 87.5; call = inactive
BRIP1, rucaparib or vehicle Rucaparib, cell line OCI-P5x (serous), technical replicate 2 → viability, normalised (%) = 88.4; call = inactive
BRIP1, rucaparib or vehicle Rucaparib, cell line OCI-P5x (serous), technical replicate 3 → viability, normalised (%) = 88.4; call = inactive
BRIP1, rucaparib or vehicle Rucaparib, cell line OCI-P5x (serous), technical replicate 3 → viability, normalised (%) = 81.9; call = inactive
BRIP1, rucaparib or vehicle Vehicle, cell line OCI-C5x (clear cell), technical replicate 1 → viability, normalised (%) = 66.5; call = active
